Values from PubChem BioAssay AID1224830 (NIAID, 2016)
The deposit covers about 18,000 reagents; this is a random part of them. About 2,900 of all reagents (16%) were called active. 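Calls are made per well; low scores hint the gene aids the LPS response, high scores that it dampens it.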 Entries without a mark were called inactive. Repeated entries: four replicate wells of each siRNA pool.

Purpose: 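Regulators of TLR4 signalling towards TNF-alpha in macrophage-like cells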 (primary screen)
Cells: human THP-1 monocytic leukaemia cells, TNF dual-luciferase reporter clone, PMA-differentiated to macrophage-like cells
Reagent: siRNA pool against human genes, 50 nM
Timing: LPS for 4 h, given about 3 days after siRNA transfection
Conditions: bacterial LPS (TLR4 ligand), 10 ng/ml
Measurement: 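Ratio of firefly to renilla light, scaled to the plate median and expressed as a robust z-score per replicate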
Direction: TNF reporter robust z-score: higher = stronger TNF reporter response to LPS
Call rule: 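Each well counts as active if its z-score is over 2.8 or under -1.5; controls are left without a call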

gene knocked down | TNF reporter robust z-score
FBLN2 | 1.58
FBLN2 | 0
FBLN2 | 0.71
FBLN2 | 0.36
USP40 | 0.47
USP40 | 1.31
USP40 | 1
USP40 | 0.58
HES1 | 0.56
HES1 | -0.64
HES1 | -0.59
HES1 | 0.47
RUNX1T1 | -0.35
RUNX1T1 | -0.02
RUNX1T1 | -0.85
RUNX1T1 | 0.28
ZC3H7B | 1.67
ZC3H7B | 0.97
ZC3H7B | 2
ZC3H7B | 1.47
PLOD2 | -0.46
PLOD2 | -0.5
PLOD2 | 0.83
PLOD2 | 1.68
GNG5 | 0.2
GNG5 | 0.01
GNG5 | -0.11
GNG5 | 0.29
CHST12 | -1.23
CHST12 | -1.55 (active)
CHST12 | -1.73 (active)
NFYA | -0.45
NFYA | 4.28 (active)
NFYA | -0.02
NFYA | -0.19
SH3GL1 | -0.48
SH3GL1 | -0.93
SH3GL1 | -0.38
SH3GL1 | -0.87
OR6B1 | 1.55
OR6B1 | 1.45
OR6B1 | 2.41
OR6B1 | -1.25
ZNF511 | 1.51
ZNF511 | 2.48
ZNF511 | 1.56
ZNF511 | 0.39
ENHO | 0.17
ENHO | 0.59
ENHO | -0.42
ENHO | 0.35
PAK3 | 0.47
PAK3 | 0.12
PAK3 | 1.38
PAK3 | 1.26
PLCB4 | -1.23
PLCB4 | -1.4
PLCB4 | -1.64 (active)
PLCB4 | -1.19
OR1L3 | -0.42
OR1L3 | -0.07
OR1L3 | 0.48
OR1L3 | -0.82
GJB3 | -0.95
GJB3 | -0.76
GJB3 | -0.87
GJB3 | 0.07
SHLD2 | -0.07
SHLD2 | -0.22
SHLD2 | -0.56
SHLD2 | -0.23
ABHD14B | 1.01
ABHD14B | -0.04
ABHD14B | -0.47
ABHD14B | -0.37

No new results follow: entries from further up.
gene knocked down | TNF reporter robust z-score
HES1 | -0.59
HES1 | 0.47
RUNX1T1 | -0.35
RUNX1T1 | -0.02
RUNX1T1 | -0.85
RUNX1T1 | 0.28
